For test [1], the target named is Angiotensin-umwandelnde Enzym (ACE) (Oryctolagus cuniculus, UniProt P12822). Kind of test: In vitro ACE inhibition (ACEI), rabbit lung tissue preparation, hippuryl-histidyl-leucine substrate, method of Cheung and Cushman. To be noted: read-out: In vitro ACEI IC50, 30 min incubation at 37°, tested form: HCl.
Test [2] relates to durch Angiotensin I (AI) hervorgerufene Blutdrucksteigerung. As to the kind of experiment: Inhibition of the angiotensin I (AI) induced blood pressure rise after intravenous administration of the test compound. To be noted: i.v. Dosis 0.1 mg/kg; rat; mean inhibition within 30 min after administration; tested form: HCl. The source says: Die Verbindungen der Erfindung zeigen nach intravenöser oder oraler Verabreichung eine hemmende Wirkung gegen die durch Angiotensin I hervorgerufene Blutdrucksteigerung auch an normotensiven Ratten. Das Angiotensin 1 wird durch das genannte Umwandlungsenzym zu der stark blutdrucksteigernden Substanz Angiotensin II hydrolysiert. Die Hemmung des genannten Enzyms blockiert die Bildung von Angiotensin II aus Angiotensin I. In dieser Weise wird die durch Angiotensin I provozierte Blutdrucksteigerung abgeschwächt.
Der entsprechende in-vivo-Test mit den intravenös verabreichten Verbindungen wird mit männlichen normotensiven Ratten, welche mit dem Natriumsalz der 5-Äthyl-5-(1-methylpropyl)-2-thiobarbitursäure narkotisiert sind, durchgeführt. Eine femorale Arterie und eine Wadenvene werden mit je einer Hohlnadel für die direkte Messung des Blutdrucks und für die intravenöse Verabreichung des Angiotensins I und einer erfindungsgemäßen Verbindung versehen. Nach der Stabilisierung des basalen Blutdrucks wird die Druckänderung nach drei, in 5-minütigen Intervallen, i. v. durchgeführten Reizungen mit 333 ng/kg Angiotensin I bestimmt. Solche Druckänderungen werden wieder nach 5,10,15, 30 und 60 Minuten nach intravenöser Verabreichung der zu prüfenden Verbindung bestimmt. Die letztgenannten Druckänderungen werden mit den Anfangswerten verglichen. […]

Amino acid sequences for entries named in this document (tags omitted). Residues count along the entry.
UniProt P12822, 34-1310 limits assumed: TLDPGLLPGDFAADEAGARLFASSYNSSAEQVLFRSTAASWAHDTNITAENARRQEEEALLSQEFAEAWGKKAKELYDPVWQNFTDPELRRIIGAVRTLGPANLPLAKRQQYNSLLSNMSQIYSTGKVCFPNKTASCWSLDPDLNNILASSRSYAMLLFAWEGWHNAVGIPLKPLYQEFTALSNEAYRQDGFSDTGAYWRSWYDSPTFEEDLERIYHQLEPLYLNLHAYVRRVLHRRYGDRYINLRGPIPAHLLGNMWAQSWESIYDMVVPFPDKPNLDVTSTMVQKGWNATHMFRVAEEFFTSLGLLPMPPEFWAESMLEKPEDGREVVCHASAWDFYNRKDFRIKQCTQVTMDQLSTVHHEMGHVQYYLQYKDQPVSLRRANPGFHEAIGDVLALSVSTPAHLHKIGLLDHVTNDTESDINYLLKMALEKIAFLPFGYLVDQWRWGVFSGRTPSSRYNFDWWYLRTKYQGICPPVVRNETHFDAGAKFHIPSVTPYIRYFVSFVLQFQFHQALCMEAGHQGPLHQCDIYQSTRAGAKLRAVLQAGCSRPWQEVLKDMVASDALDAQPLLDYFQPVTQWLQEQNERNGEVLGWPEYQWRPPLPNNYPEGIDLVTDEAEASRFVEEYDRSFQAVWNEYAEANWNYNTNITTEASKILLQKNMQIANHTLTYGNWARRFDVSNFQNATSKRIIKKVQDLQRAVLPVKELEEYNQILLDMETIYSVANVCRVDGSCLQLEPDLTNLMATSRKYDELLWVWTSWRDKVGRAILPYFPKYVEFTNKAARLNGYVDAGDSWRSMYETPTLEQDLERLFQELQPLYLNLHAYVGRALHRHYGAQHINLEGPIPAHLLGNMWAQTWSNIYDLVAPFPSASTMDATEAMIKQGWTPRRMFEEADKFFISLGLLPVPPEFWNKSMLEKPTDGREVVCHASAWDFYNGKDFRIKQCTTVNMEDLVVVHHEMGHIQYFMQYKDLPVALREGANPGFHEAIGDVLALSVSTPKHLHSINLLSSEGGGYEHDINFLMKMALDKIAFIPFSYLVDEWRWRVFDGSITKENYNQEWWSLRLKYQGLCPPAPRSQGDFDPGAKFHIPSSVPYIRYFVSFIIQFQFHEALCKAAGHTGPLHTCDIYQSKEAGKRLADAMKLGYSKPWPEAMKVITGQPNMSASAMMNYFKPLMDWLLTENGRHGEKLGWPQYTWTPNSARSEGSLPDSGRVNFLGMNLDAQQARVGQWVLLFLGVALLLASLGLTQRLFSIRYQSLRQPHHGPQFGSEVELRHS

The match of structure and compound is tentative.

As for `O=C(O)CN1C(=O)[C@@H](N[C@@H](CCc2ccccc2)C(=O)OCc2ccccc2)CCc2ccccc21` (relative stereo), in test [1], the IC50 was 100 nM. The “% AI Hemmung” value in test [2] stood at 92%.

The values are drawn from EP0072352B1, “Benzazepin-2-ones, process for their preparation, pharmaceutical preparations containing these compounds and the compounds for therapeutical use” (CIBA-GEIGY AG, priority 1981, dated 1983).
